# PMC8782169, “The distinct RNA-interaction modes of a small ZnF domain underlay TUT4(7) diverse action in miRNA regulation”
# These are yes or no findings as the source states them, for the method shown.
# T1: hTUT4 CCHC-ZnF3 (1354-1382) (human) (UniProt Q5TAX3)
# T1 sequence (chain, 15N-labelled): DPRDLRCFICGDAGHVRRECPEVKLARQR
# Target: T1, hTUT4 CCHC-ZnF3 (1354-1382) (human)
# Assay: NMR 15N T1 and T2 relaxation + comparison of 15N HSQC spectra; 15N-labelled hTUT4 ZnF2-3 di-domain (1293-1382), both domains on one chain; T1 and T2 at 800 MHz, rotational correlation times of each domain; HSQC spectra of isolated ZnF2 and ZnF3 overlaid with ZnF2-3; both purified
binder,measurement,value
"RCCRVCGKIGHYMKDCPKRKSSLLFRLKK (domain or fragment, UniProt Q5TAX3-3 1293-1321, 15N-labelled) [hTUT4 CCHC-ZnF2 (1293-1321)]",binding,no binding
